PMC5853388
Results are given in words; binding and its absence hold for the method and conditions named. For some assays here: Binding seen in cells or lysates may run through a third protein. Some binding calls cover weakened binding; strength is not graded here. Tags and fused reporters may be left off the sequences shown.

Sequences of proteins named here, by UniProt entry; tags and fusion partners are left off. A change or cut given only in a name is not applied to a line headed by its entry.
UniProt Q39255: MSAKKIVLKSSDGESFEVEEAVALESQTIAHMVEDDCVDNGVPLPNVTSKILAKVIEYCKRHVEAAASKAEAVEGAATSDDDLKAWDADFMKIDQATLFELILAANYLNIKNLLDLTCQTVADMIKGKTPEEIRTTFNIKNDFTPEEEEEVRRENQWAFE

Legend:
[1] = target: T1, CFB (Cytokinin-induced F-box encoding) fused to the LexA DNA-binding domain (Arabidopsis thaliana) (UniProt Q2V3R1); assay: two-hybrid; lexA-based yeast two-hybrid in L40ccU3 cells; CFB versions on LexA-BD, ASK1 on Gal4-AD; growth on SDIV selection medium, 3 d at 28 °C
T1 sequence: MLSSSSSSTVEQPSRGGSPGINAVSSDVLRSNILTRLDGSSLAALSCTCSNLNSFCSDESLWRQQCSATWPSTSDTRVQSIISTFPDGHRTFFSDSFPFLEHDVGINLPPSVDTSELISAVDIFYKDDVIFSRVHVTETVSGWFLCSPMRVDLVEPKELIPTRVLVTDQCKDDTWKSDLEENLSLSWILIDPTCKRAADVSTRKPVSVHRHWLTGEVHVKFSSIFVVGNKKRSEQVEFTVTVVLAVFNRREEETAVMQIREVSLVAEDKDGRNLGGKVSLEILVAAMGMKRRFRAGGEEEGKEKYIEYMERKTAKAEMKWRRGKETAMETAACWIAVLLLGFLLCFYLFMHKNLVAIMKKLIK

[2] = target: T2, CFB fused to the C-terminal part of ubiquitin (Cub) (Arabidopsis thaliana) (UniProt Q2V3R1); assay: split reporter; split-ubiquitin system in yeast THY.AP4α; CFB versions fused to Cub, ASK1 to NubG; growth on SD -L, -W, -A, -H with 135 µM Met
T2 sequence: T1 sequence

binding [1] | binding [2] | Substance
binds | – | ASK1 (Arabidopsis SKP1 homolog) fused to the Gal4 activation domain (from UniProt Q39255 1-160)
– | binds | ASK1 fused to the non-interacting N-terminal mutant part of ubiquitin (NubG) (from UniProt Q39255 1-160)
